Measured data: PubChem BioAssay AID686943 (Drosophila RNAi Screening Center, 2013)
Assay: 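Search across the genome for regulators of signalling from receptor tyrosine kinase to ERK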 (primary screen). Cell system: Drosophila S2R+ haemocyte-like cells expressing YFP-tagged ERK (Rolled). Reagent: long dsRNA against Drosophila genes. Challenge: insulin stimulation versus unstimulated cells; dose and duration not given. Read-out: 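Antibody staining for doubly phosphorylated ERK divided by ERK-YFP signal, as plate z-scores, in insulin-treated and untreated cells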. Direction: replicate 1, z-score of dpERK with insulin and replicate 2, z-score of dpERK with insulin: higher = more active ERK per ERK-YFP after insulin.
The screen tested about 23,000 reagents; this is an unselected part of those with a known target gene and a result. 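Extra replicates exist only for a retested subset of genes; insulin dose and duration not given; both raised and lowered dpERK matter.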 Reagents against one gene are numbered here. Further read-outs or replicates are left out here. The record does not give: the amount of reagent, the time to read-out.

Ncc69 #1 — replicate 1, z-score of dpERK with insulin = -0.45; replicate 2, z-score of dpERK with insulin = 0.47
Ncc69 #2 — replicate 1, z-score of dpERK with insulin = 2.72; replicate 2, z-score of dpERK with insulin = 0.69
CG1909 — replicate 1, z-score of dpERK with insulin = 0.05; replicate 2, z-score of dpERK with insulin = 0.23
dhd — replicate 1, z-score of dpERK with insulin = 1.16; replicate 2, z-score of dpERK with insulin = 0.42
CG5895 — replicate 1, z-score of dpERK with insulin = 1.07; replicate 2, z-score of dpERK with insulin = -0.07
Klp59C — replicate 1, z-score of dpERK with insulin = -0.04; replicate 2, z-score of dpERK with insulin = 1.07
Nepl4 — replicate 1, z-score of dpERK with insulin = -0.15; replicate 2, z-score of dpERK with insulin = 0.06
CG31142 — replicate 1, z-score of dpERK with insulin = 0.91; replicate 2, z-score of dpERK with insulin = 0.5
Mys45A — replicate 1, z-score of dpERK with insulin = -0.34; replicate 2, z-score of dpERK with insulin = -0.34
Pp1-87B — replicate 1, z-score of dpERK with insulin = -4.18; replicate 2, z-score of dpERK with insulin = -4.21
CG32024 — replicate 1, z-score of dpERK with insulin = 0.55; replicate 2, z-score of dpERK with insulin = -0.4

3 of these entries in another layout.
Klp59C
- replicate 1, z-score of dpERK with insulin: -0.04
- replicate 2, z-score of dpERK with insulin: 1.07

Nepl4
- replicate 1, z-score of dpERK with insulin: -0.15
- replicate 2, z-score of dpERK with insulin: 0.06

CG31142
- replicate 1, z-score of dpERK with insulin: 0.91
- replicate 2, z-score of dpERK with insulin: 0.5

Continued.
stj — replicate 1, z-score of dpERK with insulin = 0.01; replicate 2, z-score of dpERK with insulin = -1.02
CG43183 — replicate 1, z-score of dpERK with insulin = 0.49; replicate 2, z-score of dpERK with insulin = 0.92
GstD8 — replicate 1, z-score of dpERK with insulin = -0.02; replicate 2, z-score of dpERK with insulin = 0.16
CG32102 — replicate 1, z-score of dpERK with insulin = 0.28; replicate 2, z-score of dpERK with insulin = -0.38
Dscam3 #1 — replicate 1, z-score of dpERK with insulin = -0.68; replicate 2, z-score of dpERK with insulin = -0.01
Dscam3 #2 — replicate 1, z-score of dpERK with insulin = 0.37; replicate 2, z-score of dpERK with insulin = 0.43
Cpr11B — replicate 1, z-score of dpERK with insulin = 0.47; replicate 2, z-score of dpERK with insulin = 0.84
CG10588 — replicate 1, z-score of dpERK with insulin = -0.17; replicate 2, z-score of dpERK with insulin = 0.06
CG32767 — replicate 1, z-score of dpERK with insulin = 1.88; replicate 2, z-score of dpERK with insulin = 1.49
Rab35 — replicate 1, z-score of dpERK with insulin = -0.79; replicate 2, z-score of dpERK with insulin = 0.75
